Record: PubChem BioAssay AID1259308 (NCATS, 2017)
Screen: 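Knock-downs that increase output of a recombinant reporter protein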 (primary screen). Cell system: human HEK293 embryonic kidney cells stably expressing firefly luciferase (HEK-CMV-Luc2-Hygro). Knock-down reagent: single siRNA against human genes, 0.8 pmol siRNA per well. Duration: 72 h. Read-out: 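Luciferase light (ONE-Glo) measured on one replicate plate set and viability (CellTiter-Glo) on the other, scaled to a negative control siRNA, with robust z-scores and luciferase per cell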. Reading the numbers: total luciferase, z-score: higher = more reporter protein produced. Hit rule: 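An siRNA counts as active if its total luciferase robust z-score exceeds 3; genes with two or more such siRNAs out of three were retested with fresh siRNAs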. Meaning of the calls: active = raised luciferase; inactive = no rise.
Here is a random part of about 59,000 reagents tested. Of all reagents, about 1,510 (2.6%) were called active. 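Calls use total luciferase alone and ignore viability, so some active siRNAs may act by altering cell number.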 The numbers tell different reagents against one gene apart. Not all columns of the deposit are shown.

ANKLE1 #1: total luciferase, z-score = -1.31; call = inactive
ANKLE1 #2: total luciferase, z-score = -0.422; call = inactive
ANKLE1 #3: total luciferase, z-score = -1.67; call = inactive
FAM186A #1: total luciferase, z-score = -0.644; call = inactive
FAM186A #2: total luciferase, z-score = -1.32; call = inactive
FAM186A #3: total luciferase, z-score = 0.878; call = inactive
TIGD3 #1: total luciferase, z-score = -1.7; call = inactive
TIGD3 #2: total luciferase, z-score = -1.63; call = inactive
TIGD3 #3: total luciferase, z-score = 0.338; call = inactive
ESRP2 #1: total luciferase, z-score = -0.0535; call = inactive
ESRP2 #2: total luciferase, z-score = 1.45; call = inactive
ESRP2 #3: total luciferase, z-score = -0.165; call = inactive

Laid out differently: results already given.
ESRP2 #2
- total luciferase, z-score: 1.45
- call: inactive

ESRP2 #3
- total luciferase, z-score: -0.165
- call: inactive

More entries:
MRPL48 #1: total luciferase, z-score = 0.525; call = inactive
MRPL48 #2: total luciferase, z-score = -1.06; call = inactive
MRPL48 #3: total luciferase, z-score = -0.711; call = inactive
DNAJC1 #1: total luciferase, z-score = -0.39; call = inactive
DNAJC1 #2: total luciferase, z-score = 0.895; call = inactive
DNAJC1 #3: total luciferase, z-score = -0.95; call = inactive
LOC728376 #1: total luciferase, z-score = -0.521; call = inactive
LOC728376 #2: total luciferase, z-score = 0.827; call = inactive
LOC728376 #3: total luciferase, z-score = 0.67; call = inactive
